In experiment [1] the target is T1, Native bovine alpha-casein purified from cow's milk (Sigma Aldrich) (bovine (cow)) (UniProt P02662).
T1 sequence (native phosphorylation (sites not printed), looked up): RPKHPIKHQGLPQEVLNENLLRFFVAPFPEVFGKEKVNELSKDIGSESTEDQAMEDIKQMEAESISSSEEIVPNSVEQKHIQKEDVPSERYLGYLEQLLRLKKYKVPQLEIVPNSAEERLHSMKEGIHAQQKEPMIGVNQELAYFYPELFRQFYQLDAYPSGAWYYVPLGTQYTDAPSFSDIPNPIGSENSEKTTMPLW
Nature of the experiment: co-assembly into casein micelles (alpha + kappa casein with phosphate, citrate, calcium), DLS particle size, FIG. 1.

Experiment [2] deals with T2, Hypophosphorylated (~2-3 phosphates per molecule) version of bovine alpha-casein (Sigma) (bovine) (UniProt P02662).
T2 sequence (~2-3 phosphates per molecule, looked up): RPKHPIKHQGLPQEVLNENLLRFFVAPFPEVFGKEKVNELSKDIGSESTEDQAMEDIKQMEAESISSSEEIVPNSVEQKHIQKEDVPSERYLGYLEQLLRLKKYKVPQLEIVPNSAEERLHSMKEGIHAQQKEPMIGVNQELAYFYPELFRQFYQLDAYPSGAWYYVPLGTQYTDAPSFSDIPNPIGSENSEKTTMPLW
The description is as above.

In experiment [3] the target is T1, Native bovine alpha-casein purified from cow's milk (Sigma Aldrich) (bovine (cow)). In words: co-assembly into casein micelles (alpha + kappa casein with phosphate, citrate, calcium), DLS particle size, FIG. 3.
The target in experiment [4] is Bovine kappa casein purified from cow's milk (Sigma Aldrich) (bovine (cow)) (UniProt P02668). Nature of the experiment: co-assembly into casein micelles (alpha + kappa casein with phosphate, citrate, calcium), DLS particle size, FIG. 8.
The target is the same in experiment [5]. Nature of the experiment: co-assembly into casein micelles (alpha + kappa casein with phosphate, citrate, calcium), DLS particle size, FIG. 5.

Results are given in words; binding and its absence hold for the method and conditions named. Some entries that bind do so weakly or less than the wild type.

As to “Bovine kappa casein purified from cow's milk (Sigma Aldrich) (from UniProt P02668 22-190)”, the binding entry in experiment [1], in experiment [2] and in experiment [3] was “binds” each time.

B1: Recombinantly-produced bovine (cow) alpha-S1-casein (lacking PTMs) with 23 amino acid residues truncated from the N-terminal (F24 alpha-S1-casein) (protein)
chain: FVAPFPEVFGKEKVNELSKDIGSESTEDQAMEDIKQMEAESISSSEEIVPNSVEQKHIQKEDVPSERYLGYLEQLLRLKKYKVPQLEIVPNSAEERLHSMKEGIHAQQKEPMIGVNQELAYFYPELFRQFYQLDAYPSGAWYYVPLGTQYTDAPSFSDIPNPIGSENSGKTTMPLW
With B1, the binding entry in experiment [4] is on record as “binds”.

B2: Native bovine alpha-casein purified from cow's milk (Sigma Aldrich) (protein, bovine (cow), UniProt P02662 16-214, looked up)
chain: RPKHPIKHQGLPQEVLNENLLRFFVAPFPEVFGKEKVNELSKDIGSESTEDQAMEDIKQMEAESISSSEEIVPNSVEQKHIQKEDVPSERYLGYLEQLLRLKKYKVPQLEIVPNSAEERLHSMKEGIHAQQKEPMIGVNQELAYFYPELFRQFYQLDAYPSGAWYYVPLGTQYTDAPSFSDIPNPIGSENSEKTTMPLW
modifications: native phosphorylation (sites not given)
For B2, the binding entry in experiment [5] and in experiment [4] was “binds” each time.

The values are drawn from patent US20230404098A1.
